One assay addresses BRM (Homo sapiens, UniProt P51531). The experiment in a line: ATPase catalytic activity of BRM, ADP-Glo in vitro biochemical assay. The note with it: read-out: BRM IP50 (μM)*, 30 nM BRM, 400 μM ATP.
The next assay concerns the target BRG-1 (Homo sapiens, UniProt P51532). The experiment in a line: ATPase catalytic activity of BRG-1, ADP-Glo in vitro biochemical assay. The note with it: read-out: BRG1 IP50 (μM)*, 30 nM BRG-1, 400 μM ATP.

Amino acid sequences for entries named in this document (tags omitted).
UniProt P51531, whole entry: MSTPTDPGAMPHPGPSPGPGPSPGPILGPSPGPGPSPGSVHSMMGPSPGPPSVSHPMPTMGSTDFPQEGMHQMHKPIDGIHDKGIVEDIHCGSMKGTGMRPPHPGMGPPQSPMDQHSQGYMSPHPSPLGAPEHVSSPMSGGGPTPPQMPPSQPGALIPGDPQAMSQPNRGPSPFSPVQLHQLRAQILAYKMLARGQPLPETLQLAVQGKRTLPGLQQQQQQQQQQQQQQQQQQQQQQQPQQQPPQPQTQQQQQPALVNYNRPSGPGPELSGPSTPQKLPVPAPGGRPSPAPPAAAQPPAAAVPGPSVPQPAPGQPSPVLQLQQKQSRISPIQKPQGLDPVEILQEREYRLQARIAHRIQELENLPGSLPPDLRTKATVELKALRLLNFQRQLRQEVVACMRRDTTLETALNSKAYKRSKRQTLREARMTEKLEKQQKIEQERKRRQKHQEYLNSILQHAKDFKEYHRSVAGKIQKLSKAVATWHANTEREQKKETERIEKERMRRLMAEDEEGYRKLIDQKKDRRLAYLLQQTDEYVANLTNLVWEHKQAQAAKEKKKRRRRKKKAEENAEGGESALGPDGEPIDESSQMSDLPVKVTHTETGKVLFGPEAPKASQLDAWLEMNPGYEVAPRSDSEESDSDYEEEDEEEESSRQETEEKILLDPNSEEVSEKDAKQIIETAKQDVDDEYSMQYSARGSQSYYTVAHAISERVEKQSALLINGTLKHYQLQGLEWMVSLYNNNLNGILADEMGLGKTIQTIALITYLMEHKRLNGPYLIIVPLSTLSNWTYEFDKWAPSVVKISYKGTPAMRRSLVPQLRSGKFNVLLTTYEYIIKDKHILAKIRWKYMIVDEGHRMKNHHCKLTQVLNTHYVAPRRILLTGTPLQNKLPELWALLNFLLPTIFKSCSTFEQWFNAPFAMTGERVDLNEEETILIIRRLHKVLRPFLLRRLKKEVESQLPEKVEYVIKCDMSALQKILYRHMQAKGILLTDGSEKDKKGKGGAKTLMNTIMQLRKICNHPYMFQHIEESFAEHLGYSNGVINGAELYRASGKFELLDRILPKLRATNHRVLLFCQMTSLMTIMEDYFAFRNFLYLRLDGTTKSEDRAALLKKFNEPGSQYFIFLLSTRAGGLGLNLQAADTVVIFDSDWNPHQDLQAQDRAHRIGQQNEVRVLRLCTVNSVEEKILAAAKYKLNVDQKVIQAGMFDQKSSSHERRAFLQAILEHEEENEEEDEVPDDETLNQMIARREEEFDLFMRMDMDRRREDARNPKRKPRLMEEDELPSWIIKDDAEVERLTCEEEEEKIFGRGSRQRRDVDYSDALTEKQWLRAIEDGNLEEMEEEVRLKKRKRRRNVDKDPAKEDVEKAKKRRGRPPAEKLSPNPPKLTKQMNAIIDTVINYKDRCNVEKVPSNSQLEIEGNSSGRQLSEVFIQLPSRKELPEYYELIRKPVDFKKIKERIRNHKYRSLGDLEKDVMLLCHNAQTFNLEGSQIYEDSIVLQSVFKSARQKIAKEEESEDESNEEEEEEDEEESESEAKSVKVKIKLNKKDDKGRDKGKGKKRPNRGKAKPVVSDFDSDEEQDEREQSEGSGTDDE
UniProt P51532, whole entry: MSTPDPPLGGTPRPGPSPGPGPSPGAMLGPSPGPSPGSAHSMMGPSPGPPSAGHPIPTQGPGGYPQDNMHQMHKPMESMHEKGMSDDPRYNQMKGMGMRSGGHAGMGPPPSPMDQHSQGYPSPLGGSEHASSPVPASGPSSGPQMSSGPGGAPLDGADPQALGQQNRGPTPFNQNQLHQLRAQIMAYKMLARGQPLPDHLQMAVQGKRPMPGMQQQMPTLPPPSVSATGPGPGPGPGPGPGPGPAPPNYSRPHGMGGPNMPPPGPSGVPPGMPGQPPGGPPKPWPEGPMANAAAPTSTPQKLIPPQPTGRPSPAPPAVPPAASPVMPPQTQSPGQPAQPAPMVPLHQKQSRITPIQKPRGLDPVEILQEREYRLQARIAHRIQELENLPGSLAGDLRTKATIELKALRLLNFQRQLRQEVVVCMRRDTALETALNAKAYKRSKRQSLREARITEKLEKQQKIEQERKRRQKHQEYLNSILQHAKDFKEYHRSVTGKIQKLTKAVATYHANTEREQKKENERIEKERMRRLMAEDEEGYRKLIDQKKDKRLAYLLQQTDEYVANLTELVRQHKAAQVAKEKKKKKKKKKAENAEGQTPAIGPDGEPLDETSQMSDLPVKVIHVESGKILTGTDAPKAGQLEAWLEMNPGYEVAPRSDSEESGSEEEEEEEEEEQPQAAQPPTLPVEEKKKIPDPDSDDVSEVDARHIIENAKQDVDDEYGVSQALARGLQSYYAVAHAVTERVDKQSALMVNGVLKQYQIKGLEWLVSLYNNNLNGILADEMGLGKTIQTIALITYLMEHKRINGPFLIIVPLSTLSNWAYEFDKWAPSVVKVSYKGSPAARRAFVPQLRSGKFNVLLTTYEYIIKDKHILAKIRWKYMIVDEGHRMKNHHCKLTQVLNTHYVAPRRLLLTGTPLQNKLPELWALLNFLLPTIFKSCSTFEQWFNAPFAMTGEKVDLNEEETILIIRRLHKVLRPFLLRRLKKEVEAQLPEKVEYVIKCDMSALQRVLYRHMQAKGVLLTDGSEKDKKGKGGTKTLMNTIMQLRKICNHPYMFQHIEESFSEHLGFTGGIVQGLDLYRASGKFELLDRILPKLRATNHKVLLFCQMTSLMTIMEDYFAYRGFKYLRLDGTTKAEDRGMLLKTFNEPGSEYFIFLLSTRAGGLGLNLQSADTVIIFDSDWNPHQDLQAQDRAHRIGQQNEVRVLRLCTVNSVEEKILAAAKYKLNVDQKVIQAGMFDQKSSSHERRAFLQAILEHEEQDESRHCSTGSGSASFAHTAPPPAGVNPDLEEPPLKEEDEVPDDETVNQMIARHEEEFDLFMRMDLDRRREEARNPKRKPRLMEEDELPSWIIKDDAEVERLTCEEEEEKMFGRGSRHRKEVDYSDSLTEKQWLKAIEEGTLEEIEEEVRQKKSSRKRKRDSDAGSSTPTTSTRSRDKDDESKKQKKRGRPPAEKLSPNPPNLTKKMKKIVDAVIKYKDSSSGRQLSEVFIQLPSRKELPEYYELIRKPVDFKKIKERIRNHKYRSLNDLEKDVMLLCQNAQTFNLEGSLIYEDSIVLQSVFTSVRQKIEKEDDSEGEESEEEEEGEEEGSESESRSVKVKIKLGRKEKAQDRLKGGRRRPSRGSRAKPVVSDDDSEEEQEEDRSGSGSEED

The structures given here were assigned with low confidence; some may be wrong.

For the compound `CC(C)(C)n1ccc(C(=O)NCC(=O)Nc2nc(-c3cccc(N4CCC(O)CC4)n3)cs2)c1` [Compound 314], the IC50 on BRM and on BRG-1 was greater than 0.01 µM each time.

Values taken from US20230079819A1, “COMPOUNDS AND USES THEREOF” (Foghorn Therapeutics Inc., priority 2019, published 2023).
